The source of these data is PMC4986900.

The chains behind the UniProt entries cited, without tags or fusion partners.
UniProt Q9Y3B2: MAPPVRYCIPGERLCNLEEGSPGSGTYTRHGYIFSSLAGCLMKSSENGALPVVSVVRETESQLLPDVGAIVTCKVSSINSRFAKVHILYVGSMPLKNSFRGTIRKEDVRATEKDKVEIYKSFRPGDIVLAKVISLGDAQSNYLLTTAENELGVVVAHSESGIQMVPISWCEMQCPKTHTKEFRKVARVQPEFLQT
UniProt Q13868: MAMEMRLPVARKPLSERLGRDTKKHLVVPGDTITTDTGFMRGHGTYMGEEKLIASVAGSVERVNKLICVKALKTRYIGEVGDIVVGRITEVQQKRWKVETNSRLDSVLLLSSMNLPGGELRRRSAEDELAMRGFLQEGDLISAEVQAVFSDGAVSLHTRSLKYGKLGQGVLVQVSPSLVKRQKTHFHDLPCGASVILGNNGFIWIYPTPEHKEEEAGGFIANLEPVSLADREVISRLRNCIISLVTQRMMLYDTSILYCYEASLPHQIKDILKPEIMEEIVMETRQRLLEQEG
UniProt Q9NQT5: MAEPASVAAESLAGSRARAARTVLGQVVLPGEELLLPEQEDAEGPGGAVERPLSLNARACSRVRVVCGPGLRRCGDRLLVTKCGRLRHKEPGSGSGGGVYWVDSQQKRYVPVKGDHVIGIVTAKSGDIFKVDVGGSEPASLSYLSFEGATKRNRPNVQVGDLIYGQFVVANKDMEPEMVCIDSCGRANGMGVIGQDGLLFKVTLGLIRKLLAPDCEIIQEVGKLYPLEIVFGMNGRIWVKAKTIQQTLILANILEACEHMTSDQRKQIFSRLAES
UniProt Q9NQT4: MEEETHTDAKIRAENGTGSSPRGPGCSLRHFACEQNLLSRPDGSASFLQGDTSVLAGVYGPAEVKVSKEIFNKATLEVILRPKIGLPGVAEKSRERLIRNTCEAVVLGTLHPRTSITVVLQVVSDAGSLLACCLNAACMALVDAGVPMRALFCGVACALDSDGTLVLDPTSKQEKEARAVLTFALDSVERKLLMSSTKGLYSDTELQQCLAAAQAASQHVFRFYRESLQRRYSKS
UniProt Q5RKV6: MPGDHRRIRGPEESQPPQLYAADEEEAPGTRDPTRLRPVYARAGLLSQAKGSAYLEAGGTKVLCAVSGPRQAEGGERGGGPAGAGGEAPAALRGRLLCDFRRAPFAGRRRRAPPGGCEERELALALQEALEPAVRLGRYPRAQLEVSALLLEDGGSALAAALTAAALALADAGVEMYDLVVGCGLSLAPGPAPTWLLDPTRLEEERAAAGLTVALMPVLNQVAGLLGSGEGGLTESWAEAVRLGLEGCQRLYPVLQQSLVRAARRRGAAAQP
UniProt Q15024: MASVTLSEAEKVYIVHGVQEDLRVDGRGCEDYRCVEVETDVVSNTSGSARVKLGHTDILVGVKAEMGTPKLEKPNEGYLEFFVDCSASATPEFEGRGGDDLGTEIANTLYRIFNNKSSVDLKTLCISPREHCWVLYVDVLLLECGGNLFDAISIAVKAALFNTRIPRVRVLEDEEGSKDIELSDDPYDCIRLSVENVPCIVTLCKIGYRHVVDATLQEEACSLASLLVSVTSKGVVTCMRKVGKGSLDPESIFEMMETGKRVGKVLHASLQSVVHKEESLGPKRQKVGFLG
UniProt Q06265: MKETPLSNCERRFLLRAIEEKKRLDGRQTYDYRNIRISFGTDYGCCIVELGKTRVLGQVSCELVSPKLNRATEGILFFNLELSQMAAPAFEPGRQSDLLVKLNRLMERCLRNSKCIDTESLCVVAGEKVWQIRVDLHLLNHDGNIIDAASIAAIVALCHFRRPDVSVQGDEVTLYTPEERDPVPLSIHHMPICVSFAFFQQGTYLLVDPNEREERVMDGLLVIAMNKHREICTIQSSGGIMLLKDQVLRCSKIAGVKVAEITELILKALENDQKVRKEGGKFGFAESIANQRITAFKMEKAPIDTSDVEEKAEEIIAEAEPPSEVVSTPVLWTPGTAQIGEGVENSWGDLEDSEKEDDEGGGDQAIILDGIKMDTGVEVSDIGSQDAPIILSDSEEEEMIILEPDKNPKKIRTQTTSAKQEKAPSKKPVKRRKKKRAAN

These are yes or no findings as the source states them, for the method shown. Binding seen in cells or lysates may run through a third protein. These calls come from enrichment with a bait or labelling near it, and not all partners need be listed. For some assays here: No binding means not detected with the bait. Sequences can lack the tags named with a protein.

Assay [1] has as its target T1, 3xFlag-tagged EXOSC10 (human RRP6) (human) (UniProt Q01780).
T1 sequence: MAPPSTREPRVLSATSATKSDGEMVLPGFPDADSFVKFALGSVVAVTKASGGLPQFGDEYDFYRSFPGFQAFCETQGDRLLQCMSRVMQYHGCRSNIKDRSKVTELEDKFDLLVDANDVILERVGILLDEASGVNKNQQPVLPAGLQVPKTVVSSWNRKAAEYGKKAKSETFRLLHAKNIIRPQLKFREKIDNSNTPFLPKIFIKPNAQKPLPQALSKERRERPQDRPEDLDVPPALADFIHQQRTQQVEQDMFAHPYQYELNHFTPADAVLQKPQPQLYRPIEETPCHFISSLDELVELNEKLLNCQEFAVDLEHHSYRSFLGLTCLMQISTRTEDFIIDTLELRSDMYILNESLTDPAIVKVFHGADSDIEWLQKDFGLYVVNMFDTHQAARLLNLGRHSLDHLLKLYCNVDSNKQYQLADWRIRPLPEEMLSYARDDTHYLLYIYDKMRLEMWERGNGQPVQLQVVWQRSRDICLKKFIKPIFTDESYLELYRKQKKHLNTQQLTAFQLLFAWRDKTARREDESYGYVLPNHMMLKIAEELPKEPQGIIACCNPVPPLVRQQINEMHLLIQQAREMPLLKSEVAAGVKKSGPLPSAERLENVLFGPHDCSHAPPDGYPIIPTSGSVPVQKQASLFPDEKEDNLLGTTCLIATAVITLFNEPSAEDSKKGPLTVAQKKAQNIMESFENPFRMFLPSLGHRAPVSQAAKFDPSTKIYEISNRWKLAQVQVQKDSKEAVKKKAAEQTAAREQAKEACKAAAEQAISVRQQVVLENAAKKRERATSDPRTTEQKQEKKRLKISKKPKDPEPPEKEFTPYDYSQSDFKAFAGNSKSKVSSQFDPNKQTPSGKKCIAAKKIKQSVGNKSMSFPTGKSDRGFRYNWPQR
Nature of the assay: affinity purification with mass spectrometry; ExoI: EXOSC10-3xFlag captured on anti-Flag magnetic beads from cryomilled HEK-293 cell powder extracted in 20 mM HEPES-Na pH 7.4, 300 mM NaCl, 1% v/v Triton X-100; native elution with 3xFlag peptide; 10%-40% glycerol gradient at 4°C; SDS-PAGE and MS of peak fractions.

The target of assay [2] is T1, 3xFlag-tagged EXOSC10 (human RRP6) (human). Briefly: affinity purification with mass spectrometry; ExoII: EXOSC10-3xFlag captured on anti-Flag magnetic beads from cryomilled HEK-293 cell powder extracted in 20 mM HEPES-Na pH 7.4, 100 mM NaCl, 5 mM CHAPS; native elution with 3xFlag peptide; eluate crosslinked with DTSSP before the glycerol gradient at 4°C (without DTSSP DIS3 dissociated during centrifugation); SDS-PAGE and MS of peak fractions.

Assay [3] addresses T2, 3xFlag-tagged EXOSC10 (human RRP6) (human), Q01780.
T2 chain: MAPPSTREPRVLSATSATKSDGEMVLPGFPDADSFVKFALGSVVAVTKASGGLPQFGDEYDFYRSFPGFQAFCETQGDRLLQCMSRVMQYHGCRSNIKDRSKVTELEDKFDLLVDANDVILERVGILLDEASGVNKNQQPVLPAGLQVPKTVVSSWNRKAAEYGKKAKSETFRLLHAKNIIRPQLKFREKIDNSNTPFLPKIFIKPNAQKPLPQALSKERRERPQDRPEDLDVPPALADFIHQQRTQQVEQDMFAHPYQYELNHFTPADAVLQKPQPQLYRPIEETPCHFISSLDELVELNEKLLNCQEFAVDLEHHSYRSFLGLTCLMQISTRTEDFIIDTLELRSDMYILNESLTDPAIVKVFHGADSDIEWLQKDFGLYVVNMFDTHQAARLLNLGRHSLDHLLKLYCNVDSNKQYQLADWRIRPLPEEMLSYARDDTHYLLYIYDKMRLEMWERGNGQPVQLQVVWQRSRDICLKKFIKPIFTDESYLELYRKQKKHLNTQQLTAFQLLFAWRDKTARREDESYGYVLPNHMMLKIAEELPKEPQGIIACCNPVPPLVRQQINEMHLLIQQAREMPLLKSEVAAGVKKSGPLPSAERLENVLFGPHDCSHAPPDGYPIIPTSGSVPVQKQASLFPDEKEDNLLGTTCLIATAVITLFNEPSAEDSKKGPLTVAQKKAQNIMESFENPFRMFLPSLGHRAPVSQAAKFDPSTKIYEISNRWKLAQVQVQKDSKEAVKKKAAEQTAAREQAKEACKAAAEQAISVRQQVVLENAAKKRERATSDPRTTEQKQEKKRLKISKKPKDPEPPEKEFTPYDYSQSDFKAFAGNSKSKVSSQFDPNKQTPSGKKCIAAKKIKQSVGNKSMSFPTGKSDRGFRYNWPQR
The description is as above. The following applies: remark: other sources report otherwise.

Assay [4] has as its target T1, 3xFlag-tagged EXOSC10 (human RRP6) (human). Briefly: condition: only extraction in 300 mM NaCl, 1% v/v Triton X-100 (ExoI); affinity purification with mass spectrometry; ExoI: EXOSC10-3xFlag captured on anti-Flag magnetic beads from cryomilled HEK-293 cell powder extracted in 20 mM HEPES-Na pH 7.4, 300 mM NaCl, 1% v/v Triton X-100; native elution with 3xFlag peptide; 10%-40% glycerol gradient at 4°C; SDS-PAGE and MS of peak fractions.

Turning to EXOSC1 (from UniProt Q9Y3B2 1-195), the binding result in assay [1] and in assay [2] was “binds” throughout.

As to EXOSC2 (from UniProt Q13868 1-293), the binding result in assay [1] and in assay [2] was “binds” throughout.

On to EXOSC3 (from UniProt Q9NQT5 1-275), for which the binding result in assay [1] and in assay [2] was “binds” each time.

Take EXOSC5 (from UniProt Q9NQT4 1-235): the binding result in assay [1] and in assay [2] was “binds” each time.

For the molecule EXOSC6 (from UniProt Q5RKV6 1-272), the binding entry in assay [1] and in assay [2] was “binds” in each case.

On to EXOSC7 (from UniProt Q15024 1-291), for which the binding result in assay [1] and in assay [2] was “binds” throughout.

EXOSC9 (from UniProt Q06265 1-439): the binding result in assay [1] and in assay [2] was “binds” each time.

B1: DIS3, Q9Y2L1 1-958 (enzyme)
chain: MLKSKTFLKKTRAGGVMKIVREHYLRDDIGCGAPGCAACGGAHEGPALEPQPQDPASSVCPQPHYLLPDTNVLLHQIDVLEDPAIRNVIVLQTVLQEVRNRSAPVYKRIRDVTNNQEKHFYTFTNEHHRETYVEQEQGENANDRNDRAIRVAAKWYNEHLKKMSADNQLQVIFITNDRRNKEKAIEEGIPAFTCEEYVKSLTANPELIDRLACLSEEGNEIESGKIIFSEHLPLSKLQQGIKSGTYLQGTFRASRENYLEATVWIHGDNEENKEIILQGLKHLNRAVHEDIVAVELLPKSQWVAPSSVVLHDEGQNEEDVEKEEETERMLKTAVSEKMLKPTGRVVGIIKRNWRPYCGMLSKSDIKESRRHLFTPADKRIPRIRIETRQASTLEGRRIIVAIDGWPRNSRYPNGHFVRNLGDVGEKETETEVLLLEHDVPHQPFSQAVLSFLPKMPWSITEKDMKNREDLRHLCICSVDPPGCTDIDDALHCRELENGNLEVGVHIADVSHFIRPGNALDQESARRGTTVYLCEKRIDMVPELLSSNLCSLKCDVDRLAFSCIWEMNHNAEILKTKFTKSVINSKASLTYAEAQLRIDSANMNDDITTSLRGLNKLAKILKKRRIEKGALTLSSPEVRFHMDSETHDPIDLQTKELRETNSMVEEFMLLANISVAKKIHEEFSEHALLRKHPAPPPSNYEILVKAARSRNLEIKTDTAKSLAESLDQAESPTFPYLNTLLRILATRCMMQAVYFCSGMDNDFHHYGLASPIYTHFTSPIRRYADVIVHRLLAVAIGADCTYPELTDKHKLADICKNLNFRHKMAQYAQRASVAFHTQLFFKSKGIVSEEAYILFVRKNAIVVLIPKYGLEGTVFFEEKDKPNPQLIYDDEIPSLKIEDTVFHVFDKVKVKIMLDSSNLQHQKIRMSLVEPQIPGISIPTDTSNMDLNGPKKKKMKLGK
For B1, the binding result in assay [3] is given as “binds”.

B2: DIS3 (enzyme, UniProt Q9Y2L1 1-958)
chain: MLKSKTFLKKTRAGGVMKIVREHYLRDDIGCGAPGCAACGGAHEGPALEPQPQDPASSVCPQPHYLLPDTNVLLHQIDVLEDPAIRNVIVLQTVLQEVRNRSAPVYKRIRDVTNNQEKHFYTFTNEHHRETYVEQEQGENANDRNDRAIRVAAKWYNEHLKKMSADNQLQVIFITNDRRNKEKAIEEGIPAFTCEEYVKSLTANPELIDRLACLSEEGNEIESGKIIFSEHLPLSKLQQGIKSGTYLQGTFRASRENYLEATVWIHGDNEENKEIILQGLKHLNRAVHEDIVAVELLPKSQWVAPSSVVLHDEGQNEEDVEKEEETERMLKTAVSEKMLKPTGRVVGIIKRNWRPYCGMLSKSDIKESRRHLFTPADKRIPRIRIETRQASTLEGRRIIVAIDGWPRNSRYPNGHFVRNLGDVGEKETETEVLLLEHDVPHQPFSQAVLSFLPKMPWSITEKDMKNREDLRHLCICSVDPPGCTDIDDALHCRELENGNLEVGVHIADVSHFIRPGNALDQESARRGTTVYLCEKRIDMVPELLSSNLCSLKCDVDRLAFSCIWEMNHNAEILKTKFTKSVINSKASLTYAEAQLRIDSANMNDDITTSLRGLNKLAKILKKRRIEKGALTLSSPEVRFHMDSETHDPIDLQTKELRETNSMVEEFMLLANISVAKKIHEEFSEHALLRKHPAPPPSNYEILVKAARSRNLEIKTDTAKSLAESLDQAESPTFPYLNTLLRILATRCMMQAVYFCSGMDNDFHHYGLASPIYTHFTSPIRRYADVIVHRLLAVAIGADCTYPELTDKHKLADICKNLNFRHKMAQYAQRASVAFHTQLFFKSKGIVSEEAYILFVRKNAIVVLIPKYGLEGTVFFEEKDKPNPQLIYDDEIPSLKIEDTVFHVFDKVKVKIMLDSSNLQHQKIRMSLVEPQIPGISIPTDTSNMDLNGPKKKKMKLGK
On to B2, for which the binding result in assay [4] is reported as “no binding”.

B3: C1D (protein, UniProt Q13901 1-141)
chain: MAGEEINEDYPVEIHEYLSAFENSIGAVDEMLKTMMSVSRNELLQKLDPLEQAKVDLVSAYTLNSMFWVYLATQGVNPKEHPVKQELERIRVYMNRVKEITDKKKAGKLDRGAASRFVKNALWEPKSKNASKVANKGKSKS
As to B3, the binding entry in assay [1] and in assay [2] was “binds” in each case.

B4: MPHOSPH6 (protein, UniProt Q99547 1-160)
chain: MAAERKTRLSKNLLRMKFMQRGLDSETKKQLEEEEKKIISEEHWYLDLPELKEKESFIIEEQSFLLCEDLLYGRMSFRGFNPEVEKLMLQMNAKHKAEEVEDETVELDVSDEEMARRYETLVGTIGKKFARKRDHANYEEDENGDITPIKAKKMFLKPQD
With B4, the binding entry in assay [1] and in assay [2] was “binds” throughout.
